# Data: the supplement of paper PMC12889115
# Some of the results follow. Values are raw readings; no control value is given beside them.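 In the initial screen, polymyxin B was used at a concentration that permeabilizes Salmonella's outer membrane but not its inner membrane. Maximum growth was set by DMSO wells with or without polymyxin B. Since plates varied, data were ranked per plate, and compounds giving the lowest OD600 advanced as hits.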
# Test system: Salmonella enterica serovar Typhimurium SL1344
# Assay: bacterial growth OD600 after 18 h with compound and polymyxin B; higher = more bacterial growth (less inhibition)
# Details: 50 µM, Mueller-Hinton broth
Structure (SMILES),bacterial growth OD600 (polymyxin B 1 µg/mL),bacterial growth OD600 (polymyxin B 0.75 µg/mL)
Cc1nnc(SCC(=O)N2CCCC(Nc3ccc(C)c(C)c3)C2)s1 (configuration not stated),0.831,
Cc1nc(CN(C)C(=O)CC2(c3ccccc3C)CC(=O)N(Cc3cccnc3)C2=O)cs1 (configuration not stated),,0.816
O=C1CCC(C(=O)N2CCN(C3CCCC3)C(=O)C2)CN1CCN1CCOCC1 (configuration not stated),0.991,
C=CCN(CC=C)C(=O)C1CCC(=O)N(CCc2ccc(OC)cc2)C1 (configuration not stated),0.919,
COc1ccc(CN(C)C2CCCN(CCc3ccccc3)C2)cc1F (configuration not stated),0.769,
Cc1c(C(=O)N2CCN(C(=O)c3ccco3)CC2)sc2ncnc(NCCc3ccccc3)c12,,0.773
COc1ccc(NC(=O)CCC2CCCN(Cc3cnc(SC)nc3)C2)cc1Cl (configuration not stated),0.884,
CCN1CCN(CC(=O)NCc2ccc3[nH]c(-c4ccc(F)cc4)c(C)c3c2)CC1,1.08,
COc1cccc(C(=O)N2CCCC(CCC(=O)NCc3ccccc3Cl)C2)c1OC (configuration not stated),1.16,
C=C(C)CNC(=O)c1cc(CN2CCOCC2)on1,1.06,
Cc1cccn2c(CNCC(C)(C)N3CCOCC3)c(C(=O)N3CCCCC3)nc12,0.805,
CC(C)CCN1CCOc2ccc(C(O)Cc3ccccc3)cc2C1 (configuration not stated),,0.936
COC(=O)CCCC(=O)N1CCc2[nH]nc(-c3ccc(C(F)(F)F)cc3)c2C1,,0.926
CCOC(=O)N1CCN(C(=O)c2ccc(N3CCC(NCCn4nc(C)cc4C)CC3)cc2)CC1,,0.818
COC(=O)c1ccc(CN2CCC(CO)(Cc3ccccc3Cl)CC2)cc1,,0.757
Cc1ccc(CN2C[C@H]3OC(=O)N(C4CCCC4)[C@H]3C2)cc1C,,0.544

# Rewritten tab-delimited: two of the compounds above.
Structure (SMILES)	bacterial growth OD600 (polymyxin B 1 µg/mL)	bacterial growth OD600 (polymyxin B 0.75 µg/mL)
COc1ccc(NC(=O)CCC2CCCN(Cc3cnc(SC)nc3)C2)cc1Cl (configuration not stated)	0.884	
COC(=O)CCCC(=O)N1CCc2[nH]nc(-c3ccc(C(F)(F)F)cc3)c2C1		0.926

# More entries

Structure (SMILES),bacterial growth OD600 (polymyxin B 1 µg/mL),bacterial growth OD600 (polymyxin B 0.75 µg/mL)
Cc1cccc(-n2ncc3c2CCCC3NC(=O)CCC(F)(F)F)c1C (configuration not stated),1.12,
COc1ccc(Cc2noc(-c3ccc(N(C)CCn4ccnc4)nc3)n2)cc1,0.817,
CCC(=O)N(C)C(Cc1ccc(F)cc1F)C1CCN(C(=O)c2cccc(Cl)c2)CC1 (configuration not stated),,0.855
Cc1nc(C)c(CC(=O)NCc2cccnc2Oc2ccccc2C)s1,,0.92
c1cnc(N2CCC(C3CCN(c4nccc5occc45)C3)CC2)nc1 (configuration not stated),,0.554
C[C@@H]1CN(C(=O)c2coc(COc3ccccc3)n2)C[C@H](C)O1,0.983,
COc1c(C)cc(C(=O)C2CCCN(Cc3nc4ccc(F)cc4[nH]3)C2)cc1C (configuration not stated),0.541,
COc1ccc(CN2CCN(Cc3cccc4c3OCO4)CC2CCO)c(F)c1 (configuration not stated),1.13,
COc1ccc(CN2CCC(CO)(CCCc3ccccc3)CC2)c(F)c1,0.899,
COc1cccc(CN2CCCC(CNC(=O)c3ccc(F)cc3)C2)c1OC (configuration not stated),0.817,
CN(Cc1cccc(C(F)(F)F)c1)Cc1nc(Cc2ccccc2Cl)no1,0.75,
C=CCCC(=O)N1CCC(Oc2ccc(C(=O)NC3CCCC3)cc2Cl)CC1,1.13,
COc1ccc(CCc2nnc(CCC(=O)NCc3ccc(F)cc3F)o2)cc1,0.854,
COc1ccc(CN2CCOc3ccc(C4=Cc5ccccc5CC4)cc3C2)cc1O,,0.01
CC#CCN1C(=O)NC(CCCc2ccccc2)(C2CCN(C(=O)/C=C/c3ccccn3)CC2)C1=O (configuration not stated),,0.053
CC(C)(C)c1ccc(-n2ncc3c2CCCC3NC(=O)CCN2CCCC2=O)cc1 (configuration not stated),0.937,
